Measured values published in article doi:10.1101/402123 (bioRxiv, 2018).
No constants are given. Whether binding was seen depends on the method and setting. Some entries that bind do so weakly or less than the wild type.

T1: fluorescein-labeled BP230 peptide 26-55 (human, UniProt Q03001-8 26-55, N-terminal fluorescein)
T1 peptide (looked up): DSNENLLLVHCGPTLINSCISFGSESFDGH

B1: β4-FnIII-3,4 (1457-1666) (domain or fragment, UniProt P16144-2 1457-1666)
chain: VPDTPTRLVFSALGPTSLRVSWQEPRCERPLQGYSVEYQLLNGGELHRLNIPNPAQTSVVVEDLLPNHSYVFRVRAQSQEGWGREREGVITIESQVHPQSPLCPLPGSAFTLSTPSAPGPLVFTALSPDSLQLSWERPRRPNGDIVGYLVTCEMAQGGGPATAFRVDGDSPESRLTVPGLSENVPYKFKVQARTTEGFGPEREGIITIES
B2: β4-CS-FnIII-3,4 (1436-1666) Q1479R (domain or fragment, UniProt P16144-2 1436-1666)
chain: LPRDYSTLTSVSSHDSRLTAGVPDTPTRLVFSALGPTSLRVSWREPRCERPLQGYSVEYQLLNGGELHRLNIPNPAQTSVVVEDLLPNHSYVFRVRAQSQEGWGREREGVITIESQVHPQSPLCPLPGSAFTLSTPSAPGPLVFTALSPDSLQLSWERPRRPNGDIVGYLVTCEMAQGGGPATAFRVDGDSPESRLTVPGLSENVPYKFKVQARTTEGFGPEREGIITIES
B3: β4-CS-FnIII-3,4 (1436-1666) E1480R (domain or fragment, UniProt P16144-2 1436-1666)
chain: LPRDYSTLTSVSSHDSRLTAGVPDTPTRLVFSALGPTSLRVSWQRPRCERPLQGYSVEYQLLNGGELHRLNIPNPAQTSVVVEDLLPNHSYVFRVRAQSQEGWGREREGVITIESQVHPQSPLCPLPGSAFTLSTPSAPGPLVFTALSPDSLQLSWERPRRPNGDIVGYLVTCEMAQGGGPATAFRVDGDSPESRLTVPGLSENVPYKFKVQARTTEGFGPEREGIITIES
B4: β4-CS-FnIII-3,4 (1436-1666) R1482E/E1484R/R1485E (domain or fragment, UniProt P16144-2 1436-1666)
chain: LPRDYSTLTSVSSHDSRLTAGVPDTPTRLVFSALGPTSLRVSWQEPECREPLQGYSVEYQLLNGGELHRLNIPNPAQTSVVVEDLLPNHSYVFRVRAQSQEGWGREREGVITIESQVHPQSPLCPLPGSAFTLSTPSAPGPLVFTALSPDSLQLSWERPRRPNGDIVGYLVTCEMAQGGGPATAFRVDGDSPESRLTVPGLSENVPYKFKVQARTTEGFGPEREGIITIES
B5: β4-CS-FnIII-3,4 (1436-1666) E1493R (domain or fragment, UniProt P16144-2 1436-1666)
chain: LPRDYSTLTSVSSHDSRLTAGVPDTPTRLVFSALGPTSLRVSWQEPRCERPLQGYSVRYQLLNGGELHRLNIPNPAQTSVVVEDLLPNHSYVFRVRAQSQEGWGREREGVITIESQVHPQSPLCPLPGSAFTLSTPSAPGPLVFTALSPDSLQLSWERPRRPNGDIVGYLVTCEMAQGGGPATAFRVDGDSPESRLTVPGLSENVPYKFKVQARTTEGFGPEREGIITIES
B6: β4-CS-FnIII-3,4 (1436-1666) N1498R (domain or fragment, UniProt P16144-2 1436-1666)
chain: LPRDYSTLTSVSSHDSRLTAGVPDTPTRLVFSALGPTSLRVSWQEPRCERPLQGYSVEYQLLRGGELHRLNIPNPAQTSVVVEDLLPNHSYVFRVRAQSQEGWGREREGVITIESQVHPQSPLCPLPGSAFTLSTPSAPGPLVFTALSPDSLQLSWERPRRPNGDIVGYLVTCEMAQGGGPATAFRVDGDSPESRLTVPGLSENVPYKFKVQARTTEGFGPEREGIITIES
B7: β4-CS-FnIII-3,4 (1436-1666) E1501R (domain or fragment, UniProt P16144-2 1436-1666)
chain: LPRDYSTLTSVSSHDSRLTAGVPDTPTRLVFSALGPTSLRVSWQEPRCERPLQGYSVEYQLLNGGRLHRLNIPNPAQTSVVVEDLLPNHSYVFRVRAQSQEGWGREREGVITIESQVHPQSPLCPLPGSAFTLSTPSAPGPLVFTALSPDSLQLSWERPRRPNGDIVGYLVTCEMAQGGGPATAFRVDGDSPESRLTVPGLSENVPYKFKVQARTTEGFGPEREGIITIES
B8: β4-CS-FnIII-3,4 (1436-1666) R1504E (domain or fragment, UniProt P16144-2 1436-1666)
chain: LPRDYSTLTSVSSHDSRLTAGVPDTPTRLVFSALGPTSLRVSWQEPRCERPLQGYSVEYQLLNGGELHELNIPNPAQTSVVVEDLLPNHSYVFRVRAQSQEGWGREREGVITIESQVHPQSPLCPLPGSAFTLSTPSAPGPLVFTALSPDSLQLSWERPRRPNGDIVGYLVTCEMAQGGGPATAFRVDGDSPESRLTVPGLSENVPYKFKVQARTTEGFGPEREGIITIES
B9: β4-CS-FnIII-3,4 (1436-1666) Q1512R (domain or fragment, UniProt P16144-2 1436-1666)
chain: LPRDYSTLTSVSSHDSRLTAGVPDTPTRLVFSALGPTSLRVSWQEPRCERPLQGYSVEYQLLNGGELHRLNIPNPARTSVVVEDLLPNHSYVFRVRAQSQEGWGREREGVITIESQVHPQSPLCPLPGSAFTLSTPSAPGPLVFTALSPDSLQLSWERPRRPNGDIVGYLVTCEMAQGGGPATAFRVDGDSPESRLTVPGLSENVPYKFKVQARTTEGFGPEREGIITIES
B10: β4-CS-FnIII-3,4 (1436-1666) E1541R/E1543R (domain or fragment, UniProt P16144-2 1436-1666)
chain: LPRDYSTLTSVSSHDSRLTAGVPDTPTRLVFSALGPTSLRVSWQEPRCERPLQGYSVEYQLLNGGELHRLNIPNPAQTSVVVEDLLPNHSYVFRVRAQSQEGWGRRRRGVITIESQVHPQSPLCPLPGSAFTLSTPSAPGPLVFTALSPDSLQLSWERPRRPNGDIVGYLVTCEMAQGGGPATAFRVDGDSPESRLTVPGLSENVPYKFKVQARTTEGFGPEREGIITIES
B11: β4-CS-FnIII-3,4 (1436-1666) T1547R (domain or fragment, UniProt P16144-2 1436-1666)
chain: LPRDYSTLTSVSSHDSRLTAGVPDTPTRLVFSALGPTSLRVSWQEPRCERPLQGYSVEYQLLNGGELHRLNIPNPAQTSVVVEDLLPNHSYVFRVRAQSQEGWGREREGVIRIESQVHPQSPLCPLPGSAFTLSTPSAPGPLVFTALSPDSLQLSWERPRRPNGDIVGYLVTCEMAQGGGPATAFRVDGDSPESRLTVPGLSENVPYKFKVQARTTEGFGPEREGIITIES
B12: β4-CS-FnIII-3,4 (1436-1666) A1468R (domain or fragment, UniProt P16144-2 1436-1666)
chain: LPRDYSTLTSVSSHDSRLTAGVPDTPTRLVFSRLGPTSLRVSWQEPRCERPLQGYSVEYQLLNGGELHRLNIPNPAQTSVVVEDLLPNHSYVFRVRAQSQEGWGREREGVITIESQVHPQSPLCPLPGSAFTLSTPSAPGPLVFTALSPDSLQLSWERPRRPNGDIVGYLVTCEMAQGGGPATAFRVDGDSPESRLTVPGLSENVPYKFKVQARTTEGFGPEREGIITIES
B13: β4-CS-FnIII-3,4 (1436-1666) A1468D (domain or fragment, UniProt P16144-2 1436-1666)
chain: LPRDYSTLTSVSSHDSRLTAGVPDTPTRLVFSDLGPTSLRVSWQEPRCERPLQGYSVEYQLLNGGELHRLNIPNPAQTSVVVEDLLPNHSYVFRVRAQSQEGWGREREGVITIESQVHPQSPLCPLPGSAFTLSTPSAPGPLVFTALSPDSLQLSWERPRRPNGDIVGYLVTCEMAQGGGPATAFRVDGDSPESRLTVPGLSENVPYKFKVQARTTEGFGPEREGIITIES
B14: β4-CS-FnIII-3,4 (1436-1666) R1475E (domain or fragment, UniProt P16144-2 1436-1666)
chain: LPRDYSTLTSVSSHDSRLTAGVPDTPTRLVFSALGPTSLEVSWQEPRCERPLQGYSVEYQLLNGGELHRLNIPNPAQTSVVVEDLLPNHSYVFRVRAQSQEGWGREREGVITIESQVHPQSPLCPLPGSAFTLSTPSAPGPLVFTALSPDSLQLSWERPRRPNGDIVGYLVTCEMAQGGGPATAFRVDGDSPESRLTVPGLSENVPYKFKVQARTTEGFGPEREGIITIES
B15: β4-CS-FnIII-3,4 (1436-1666) Q1535R/E1536R (domain or fragment, UniProt P16144-2 1436-1666)
chain: LPRDYSTLTSVSSHDSRLTAGVPDTPTRLVFSALGPTSLRVSWQEPRCERPLQGYSVEYQLLNGGELHRLNIPNPAQTSVVVEDLLPNHSYVFRVRAQSRRGWGREREGVITIESQVHPQSPLCPLPGSAFTLSTPSAPGPLVFTALSPDSLQLSWERPRRPNGDIVGYLVTCEMAQGGGPATAFRVDGDSPESRLTVPGLSENVPYKFKVQARTTEGFGPEREGIITIES
B16: β4-CS-FnIII-3,4 (1436-1666) R1540E/R1542E (domain or fragment, UniProt P16144-2 1436-1666)
chain: LPRDYSTLTSVSSHDSRLTAGVPDTPTRLVFSALGPTSLRVSWQEPRCERPLQGYSVEYQLLNGGELHRLNIPNPAQTSVVVEDLLPNHSYVFRVRAQSQEGWGEEEEGVITIESQVHPQSPLCPLPGSAFTLSTPSAPGPLVFTALSPDSLQLSWERPRRPNGDIVGYLVTCEMAQGGGPATAFRVDGDSPESRLTVPGLSENVPYKFKVQARTTEGFGPEREGIITIES
B17: β4-CS-FnIII-3,4 (1436-1666) R1475A (domain or fragment, UniProt P16144-2 1436-1666)
chain: LPRDYSTLTSVSSHDSRLTAGVPDTPTRLVFSALGPTSLAVSWQEPRCERPLQGYSVEYQLLNGGELHRLNIPNPAQTSVVVEDLLPNHSYVFRVRAQSQEGWGREREGVITIESQVHPQSPLCPLPGSAFTLSTPSAPGPLVFTALSPDSLQLSWERPRRPNGDIVGYLVTCEMAQGGGPATAFRVDGDSPESRLTVPGLSENVPYKFKVQARTTEGFGPEREGIITIES
B18: β4-CS-FnIII-3,4 (1436-1666) Q1535R (domain or fragment, UniProt P16144-2 1436-1666)
chain: LPRDYSTLTSVSSHDSRLTAGVPDTPTRLVFSALGPTSLRVSWQEPRCERPLQGYSVEYQLLNGGELHRLNIPNPAQTSVVVEDLLPNHSYVFRVRAQSREGWGREREGVITIESQVHPQSPLCPLPGSAFTLSTPSAPGPLVFTALSPDSLQLSWERPRRPNGDIVGYLVTCEMAQGGGPATAFRVDGDSPESRLTVPGLSENVPYKFKVQARTTEGFGPEREGIITIES
B19: β4-CS-FnIII-3,4 (1436-1666) Q1535A (domain or fragment, UniProt P16144-2 1436-1666)
chain: LPRDYSTLTSVSSHDSRLTAGVPDTPTRLVFSALGPTSLRVSWQEPRCERPLQGYSVEYQLLNGGELHRLNIPNPAQTSVVVEDLLPNHSYVFRVRAQSAEGWGREREGVITIESQVHPQSPLCPLPGSAFTLSTPSAPGPLVFTALSPDSLQLSWERPRRPNGDIVGYLVTCEMAQGGGPATAFRVDGDSPESRLTVPGLSENVPYKFKVQARTTEGFGPEREGIITIES
B20: β4-CS-FnIII-3,4 (1436-1666) E1536R (domain or fragment, UniProt P16144-2 1436-1666)
chain: LPRDYSTLTSVSSHDSRLTAGVPDTPTRLVFSALGPTSLRVSWQEPRCERPLQGYSVEYQLLNGGELHRLNIPNPAQTSVVVEDLLPNHSYVFRVRAQSQRGWGREREGVITIESQVHPQSPLCPLPGSAFTLSTPSAPGPLVFTALSPDSLQLSWERPRRPNGDIVGYLVTCEMAQGGGPATAFRVDGDSPESRLTVPGLSENVPYKFKVQARTTEGFGPEREGIITIES
B21: β4-CS-FnIII-3,4 (1436-1666) E1536A (domain or fragment, UniProt P16144-2 1436-1666)
chain: LPRDYSTLTSVSSHDSRLTAGVPDTPTRLVFSALGPTSLRVSWQEPRCERPLQGYSVEYQLLNGGELHRLNIPNPAQTSVVVEDLLPNHSYVFRVRAQSQAGWGREREGVITIESQVHPQSPLCPLPGSAFTLSTPSAPGPLVFTALSPDSLQLSWERPRRPNGDIVGYLVTCEMAQGGGPATAFRVDGDSPESRLTVPGLSENVPYKFKVQARTTEGFGPEREGIITIES

Target: T1, fluorescein-labeled BP230 peptide 26-55
Test: fluorescence polarisation

binding, binds weakly:
B1
B2
B3
B4
B5
B6
B7
B8
B9
B10
B11
B12
B13
B14
B15
B16
B17
B18
B19
B20
B21
